Our source for the binding values is paper PMC8642402.

Chains of the proteins cited; added tags and fusions are not shown.
UniProt P50990: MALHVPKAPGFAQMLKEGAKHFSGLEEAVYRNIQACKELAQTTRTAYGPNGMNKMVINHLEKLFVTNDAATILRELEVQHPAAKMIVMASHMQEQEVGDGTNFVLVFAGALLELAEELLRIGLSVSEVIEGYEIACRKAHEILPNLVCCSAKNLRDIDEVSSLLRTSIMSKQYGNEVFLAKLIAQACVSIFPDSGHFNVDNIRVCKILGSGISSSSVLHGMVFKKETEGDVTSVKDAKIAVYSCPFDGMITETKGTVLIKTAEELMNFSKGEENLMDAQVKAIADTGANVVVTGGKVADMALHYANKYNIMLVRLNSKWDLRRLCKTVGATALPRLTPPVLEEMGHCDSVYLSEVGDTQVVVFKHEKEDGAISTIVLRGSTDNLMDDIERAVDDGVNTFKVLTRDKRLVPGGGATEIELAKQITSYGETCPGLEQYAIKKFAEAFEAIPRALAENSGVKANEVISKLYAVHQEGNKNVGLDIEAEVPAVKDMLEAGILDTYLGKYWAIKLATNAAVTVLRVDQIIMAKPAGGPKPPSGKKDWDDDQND

No constants are given. Whether binding was seen depends on the method and setting. Binding seen in cells or lysates may run through a third protein. Some entries that bind do so weakly or less than the wild type.

The target of assay [1] is TCP1 complex subunit 8 (CCT8) (human (endogenous in HCT116 and RKO)) (UniProt P50990). Nature of the assay: co-IP; endogenous proteins; cytoplasmic and nuclear proteins of HCT116 separated, interaction detected in the cytoplasm; purified by anti-CCT8 or anti-p53 affinity gel; pellets blotted with anti-p53 and anti-CCT8 antibodies.
Assay [2] has the same target. In words: co-IP; endogenous proteins; HCT116 and RKO cells lysed and purified by anti-CCT8 or anti-LASP1 affinity gel; pellets blotted with anti-LASP1 and anti-CCT8 antibodies.

Regarding “tumor suppressor protein p53 (wild type, WTp53) (from UniProt P04637 1-393)”, the binding entry in assay [1] is on record as “binds”.

B1: LIM and SH3 protein 1 (LASP1) (protein, UniProt Q14847 1-261)
chain: MNPNCARCGKIVYPTEKVNCLDKFWHKACFHCETCKMTLNMKNYKGYEKKPYCNAHYPKQSFTMVADTPENLRLKQQSELQSQVRYKEEFEKNKGKGFSVVADTPELQRIKKTQDQISNIKYHEEFEKSRMGPSGGEGMEPERRDSQDGSSYRRPLEQQQPHHIPTSAPVYQQPQQQPVAQSYGGYKEPAAPVSIQRSAPGGGGKRYRAVYDYSAADEDEVSFQDGDTIVNVQQIDDGWMYGTVERTGDTGMLPANYVEAI
For B1, in assay [2], the binding result is “binds”.
